Reference: PubChem BioAssay AID540276 (National Center for Advancing Translational Sciences (NCATS), 2011)
In all, about 300,000 compounds went through this assay and about 5,400 (1.8%) were called active. The shares of active, inactive and inconclusive entries below differ from those in the screen. The call rests on the fitted dose curve; tested in HEK293 cells. Potencies of inconclusive entries are doubtful fits and often do not repeat.
On the % scale 0 is the no-effect control and ±100 the full control effect; potency means the concentration at half of the fitted maximal effect.

Assay: qHTS for inhibitors of binding or entry into cells for Marburg Virus
Settings: Marburg virus pseudotyped entry inhibition, cell reporter; activity change, negative = inhibition: at 37.8 µM (top of the series) unless noted
With `CCC(=O)Oc1ccc2c(C)c(Cl)c(=O)oc2c1` the “activity change, negative = inhibition” value was inactive: -1.5%. With `O=C1NCCCC1C(=O)NCCN1C(=O)CCC1=O` (centres undefined) the Potency was inconclusive: 2.24 µM [inhibitor, partial curve, poor fit]. For `Cc1c(S(=O)(=O)c2ccccn2)c(N)n(Cc2ccccc2)c1C`, the “activity change, negative = inhibition” value was inactive: 0% [at 14.2 µM]. For `COC(=O)c1ccc([C@H]2/C(=C(\O)c3ccc(OC)cc3)C(=O)C(=O)N2c2cc(C)on2)cc1`, the “activity change, negative = inhibition” value was inactive: -24.3% [at 46.1 µM]. In the case of `O=C(Cc1ccc(Cl)cc1)Nc1ccc(Cl)cn1`, the “activity change, negative = inhibition” value is reported as inactive: -1.4% [at 46.1 µM]. With `O=C(Nc1ccc2nc(-c3ccccc3)[nH]c2c1)c1ccco1` the Potency was inconclusive: 35.5 µM [inhibitor, single point]. For `N#Cc1ccccc1NC(=S)NC(=O)C1CCC1`, the “activity change, negative = inhibition” value was inactive: 3.39% [at 46.1 µM]. With `Cc1nn2c(N3CCN(c4ccccn4)CC3)cc(C(C)C)nc2c1-c1ccccc1` the Potency was “inactive”. In the case of `CC(=O)C1=C(C)N(Cc2ccccc2)C(=O)N[C@H]1c1cccc(C(F)(F)F)c1`, the Potency is reported as “inactive”. With `Cc1ccc(N2CC(C(=O)NCc3n[nH]c(=O)c4ccccc34)CC2=O)cc1C` (centres undefined) the Potency was inconclusive: 35.5 µM [activator, single point]. In the case of `O=C(Cc1ccsc1)Nc1ccccc1F`, the “activity change, negative = inhibition” value is reported as inactive: 10.3% [at 46.1 µM]. In the case of `C=CC[C@@H]1C=C[C@H](ON=C[C@@H](C)[C@H](OCc2ccccc2)C(C)C)[C@H](CO)O1`, the “activity change, negative = inhibition” value is reported as inactive: -10.4% [at 14.2 µM]. In the case of `CC1CCN(C(=O)COc2ccc(S(=O)(=O)N3CCCC3)cc2)CC1`, the “activity change, negative = inhibition” value is reported as inactive: -0.783% [at 46.1 µM]. For `COc1cccc(C(=O)/C=C/Nc2ccc(S(=O)(=O)Nc3cccc(C(C)=O)c3)cc2)c1`, the Potency was inconclusive: 17.8 µM [inhibitor, partial curve, poor fit]. For `Cc1c(CCOC(=O)C2C3CC4CC(C3)CC2C4)sc[n+]1CC(=O)c1ccc(Br)cc1` (centres undefined), the Potency was inconclusive: 10 µM [inhibitor, partial curve, poor fit]. With `Cc1ccnc(NC(=O)CSc2cc(=O)n(C)c3ccccc23)c1` the Potency was inconclusive: 32.6 µM [activator, single point]. For `Cc1nc(C)c(Oc2ccc(Cl)cc2Cl)c(=O)[nH]1`, the Potency was inconclusive: 1.26 µM [inhibitor, single point]. In the case of `Cc1ccc(Cl)cc1NC(=O)c1ccc(Cn2cc(Cl)cn2)cc1`, the Potency is reported as inconclusive: 14.1 µM [inhibitor, single point]. For `O=C(CNC(=O)c1cccs1)c1ccc(F)cc1`, the Potency was inconclusive: 14.6 µM [inhibitor, partial curve, poor fit]. With `N=C1/C(=C/c2cccs2)C(=O)N=C2SN=C(SCc3ccccc3)N12` the “activity change, negative = inhibition” value was inactive: -2.7%. In the case of `COc1cccc(CN2CCC(C(=O)N3CCN(Cc4ccc5c(c4)OCO5)CC3)CC2)c1OC`, the Potency is reported as inconclusive: 10 µM [inhibitor, partial curve, poor fit]. For `Cc1ccc(-n2c(N)c(-c3nc4ccccc4n3C)sc2=S)cc1`, the Potency was inconclusive: 6.51 µM [inhibitor, single point]. In the case of `CC(C(=O)N1CCCCC1)n1sc2ccccc2c1=O` (centres undefined), the “activity change, negative = inhibition” value is reported as inactive: 24.9%. With `O=C(c1ccc(Cl)c(S(=O)(=O)N2CCCCCC2)c1)N1CCN(c2ccccn2)CC1` the Potency was inconclusive: 23.1 µM [inhibitor, single point]. In the case of `CCOc1ccc(-n2c(-c3ccc(Br)cc3)c[n+]3c2CCCCC3)cc1`, the Potency is reported as inconclusive: 11.2 µM [inhibitor, partial curve, poor fit]. In the case of `CCC(C)NC(=O)c1cc(-c2ccc3c(c2)OCO3)on1` (centres undefined), the Potency is reported as inconclusive: 0.562 µM [activator, full curve, poor fit]. With `CC(C)(CO)NC(=O)c1ccc2c(c1)C(=O)c1ccccc1-2` the Potency was inconclusive: 7.94 µM [activator, partial curve]. With `Cc1ccc(NC(=O)c2ccc(S(=O)(=O)N3CCOCC3)cc2)cc1` the “activity change, negative = inhibition” value was inactive: 8.76% [at 46.1 µM]. With `O=C1CC(c2ccccc2)n2nc(NS(=O)(=O)c3ccccc3)nc2N1` (centres undefined) the Potency was inconclusive: 3.55 µM [activator, single point]. For `Cc1ccc(/C=N/NC(=O)CSCc2ccc(Cl)cc2)cc1`, the Potency was inconclusive: 35.5 µM [inhibitor, single point]. In the case of `Cc1cccc(C(=O)OC2CCCN(C)C2)c1C` (centres undefined), the Potency is reported as inconclusive: 1.26 µM [inhibitor, single point]. For `CCc1ccccc1NC(=O)CSc1nc2c(oc3ccccc32)c(=O)n1C`, the Potency was inconclusive: 3.55 µM [inhibitor, single point]. In the case of `COc1ccc2c(c1)C(=NNC(=O)c1ccccn1)c1cc(OC)ccc1-2`, the Potency is reported as inconclusive: 1 µM [inhibitor, full curve, poor fit]. For `C[C@H](NC(=O)C1CCN(S(=O)(=O)c2ccccc2)CC1)C(=O)NCc1ccccc1`, the Potency was inconclusive: 6.31 µM [activator, partial curve, poor fit]. For `COC1C/C(=N\O)C2OC(c3ccccc3)OCC2O1` (centres undefined), the Potency was inconclusive: 6.31 µM [activator, single point]. For `CC1(C)OC(=O)C(=CNC(CCC(N)=O)C(=O)O)C(=O)O1` (centres undefined), the Potency was inconclusive: 20.6 µM [activator, single point]. In the case of `Cc1ccccc1NC(=S)N(CCCN1CCC(C)CC1)Cc1ccco1`, the Potency is reported as inconclusive: 11.2 µM [inhibitor, partial curve, poor fit]. With `COc1cc(/C=c2\s/c(=C\C(=O)C(C)(C)C)[nH]c2=O)cc(OC)c1OC` the Potency was inconclusive: 29.1 µM [inhibitor, single point]. In the case of `Cc1ccc(S(=O)(=O)NC(=O)N2CCCC2)cc1`, the “activity change, negative = inhibition” value is reported as inactive: 26.6%. In the case of `N#Cc1c(NC(=O)C2CCCO2)sc2c1CCCCCC2` (centres undefined), the Potency is reported as inconclusive: 11.2 µM [activator, partial curve, poor fit]. With `CC(=O)Nc1nc2ccc(Br)cc2s1` the Potency was inconclusive: 3.16 µM [activator, partial curve]. For `COc1ccccc1-c1nnc(NC(=O)c2ccc(S(=O)(=O)N3CCOCC3)cc2)o1`, the “activity change, negative = inhibition” value was inactive: -13.1%. With `COC(=O)c1ccccc1Oc1nc(Cl)cc(OC)n1` the Potency was inconclusive: 3.16 µM [activator, full curve, poor fit]. For `O=C(COc1ccccc1)Nc1ccc2c(c1)nc1n2CCSC1`, the “activity change, negative = inhibition” value was inactive: 11.3%. In the case of `CCN1CCCC1CNC(=O)C(=O)NC1CC1` (centres undefined), the Potency is reported as inconclusive: 12.6 µM [inhibitor, single point]. With `N#Cc1ccc(C(=O)Nc2cc(S(=O)(=O)Nc3ccc(Cl)cc3)ccc2N2CCCCC2)cc1` the Potency was inconclusive: 14.6 µM [inhibitor, partial curve, poor fit]. With `CC(C)C1Oc2ccccc2N(CC(=O)N(Cc2ccncc2)Cc2ccco2)C1=O` (centres undefined) the “activity change, negative = inhibition” value was inactive: -7.74%. In the case of `COC(=O)c1cnn2c(C(F)(F)F)cc(-c3ccccc3)nc12`, the Potency is reported as inconclusive: 0.58 µM [inhibitor, partial curve, poor fit]. In the case of `CN(C)c1cccc(NC(=O)CCc2ccccc2)c1`, the “activity change, negative = inhibition” value is reported as inactive: 14.5%. With `C/C(=N\Nc1ccc(F)cc1F)c1ccccc1O` the “activity change, negative = inhibition” value was inactive: 4.63% [at 46.1 µM]. With `COc1ccc(Cl)cc1NC(=O)CN1CCN(S(=O)(=O)N2CCC(C)CC2)CC1` the Potency was inconclusive: 17.8 µM [inhibitor, single point]. With `CC12CCCCC1(O)[N+](=O)C1=C(CCCC1)N2[O-]` (centres undefined) the Potency was inconclusive: 2.51 µM [inhibitor, single point]. For `C=CCN1[C@@H](CC(C)C)COc2c(Cl)cccc2S1(=O)=O`, the Potency was inconclusive: 0.0035 µM [activator, full curve, poor fit]. For `O=C(NC1CCCCC1)C(c1ccc(F)cc1)N(Cc1ccco1)C(=O)c1ccccn1` (centres undefined), the Potency was inconclusive: 35.5 µM [inhibitor, single point]. For `Cc1[nH]c2ccccc2c1C(=O)C(=O)NCC1CCCO1` (centres undefined), the Potency was inconclusive: 35.5 µM [activator, single point]. In the case of `Cc1cc(/C=C(/C#N)C(=O)O)c(C)n1-c1cccc2ccccc12`, the activity change, negative = inhibition is reported as inconclusive: 16.3% [activator]. With `CC(C)CNc1nc(N)c([N+](=O)[O-])c(N2CCCCCC2)n1` the Potency was inconclusive: 7.08 µM [inhibitor, partial curve, poor fit]. For `OC(CNCCc1ccccc1)c1ccccc1` (centres undefined), the “activity change, negative = inhibition” value was inactive: -10.6%. In the case of `CC1(c2ccc3ccccc3c2)NC(=O)N(CC(=O)N2CCN(S(=O)(=O)c3ccccc3F)CC2)C1=O` (centres undefined), the Potency is reported as inconclusive: 20 µM [inhibitor, single point]. In the case of `O=C(c1cccc(C(F)(F)F)c1)N(c1ccccn1)C1CCCCC1`, the Potency is reported as inconclusive: 3.16 µM [inhibitor, full curve]. For `CC(C(=O)C12CC3CC(CC(C3)C1)C2)N1CCOCC1` (centres undefined), the “activity change, negative = inhibition” value was inactive: -26.7%. For `CN(C)CCCN1C(=O)CSC1c1ccc([N+](=O)[O-])cc1` (centres undefined), the Potency was inconclusive: 14.1 µM [activator, single point]. With `CCOC(=O)N1CCC(NC(=O)C2=CCN(S(=O)(=O)c3ccccc3)CC2)CC1` the Potency was inconclusive: 6.31 µM [activator, single point]. With `Fc1ccc(NC(=S)NCCc2ccc(Cl)cc2)cc1` the Potency was inconclusive: 0.316 µM [inhibitor, partial curve, poor fit]. For `O=C(Cc1ccccc1)N/N=C/c1ccccc1Cl`, the Potency was inconclusive: 9.2 µM [activator, partial curve, poor fit]. With `COc1ccc2cc(C3CC(c4ccco4)=NN3S(=O)(=O)c3ccccc3)c(Cl)nc2c1` (centres undefined) the Potency was inconclusive: 20.6 µM [inhibitor, partial curve, poor fit]. In the case of `O=C(NCCC1CCCCN1S(=O)(=O)c1cccs1)C(=O)Nc1ccccc1F` (centres undefined), the Potency is reported as inconclusive: 28.2 µM [inhibitor, partial curve, poor fit]. For `N#Cc1ncc(-c2ccc3c(c2)OCCOCCOCCOCCO3)nc1C#N`, the Potency was inconclusive: 14.1 µM [inhibitor, single point]. With `CCCc1nnc(SCC(=O)NC2CCCC2)n1CCOC` the “activity change, negative = inhibition” value was inactive: 12.2% [at 46.1 µM].
